{
  "sequences": {"note": "By UniProt entry, the sequences of proteins in these tests, tags left out. Residues count along the entry.", "UniProt P28159, 110-594": "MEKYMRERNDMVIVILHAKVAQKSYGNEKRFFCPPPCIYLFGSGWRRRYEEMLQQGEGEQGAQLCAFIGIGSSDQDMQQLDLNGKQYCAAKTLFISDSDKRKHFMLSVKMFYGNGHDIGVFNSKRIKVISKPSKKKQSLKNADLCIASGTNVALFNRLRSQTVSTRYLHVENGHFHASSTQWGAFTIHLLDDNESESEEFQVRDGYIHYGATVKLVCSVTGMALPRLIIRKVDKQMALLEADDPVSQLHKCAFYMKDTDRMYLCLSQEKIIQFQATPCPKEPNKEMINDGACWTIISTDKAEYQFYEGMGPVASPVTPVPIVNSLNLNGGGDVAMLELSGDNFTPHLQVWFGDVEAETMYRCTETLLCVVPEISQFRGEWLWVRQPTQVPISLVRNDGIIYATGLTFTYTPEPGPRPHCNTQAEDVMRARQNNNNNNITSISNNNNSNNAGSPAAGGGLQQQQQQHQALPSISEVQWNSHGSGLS"},
  "source": "paper PMC4176381",
  "biological_target": "GST-Su(H) (CSL) (UniProt P28159)",
  "assay": "competition with a labelled probe",
  "details": "EMSA: 150 mM KCl, 50 mM Tris pH 7.4, 1 mM DTT, 2% polyvinyl alcohol, 30 ng/ul poly(dI-dC), on ice 30 min, 25 fmol biotin probe in 5 ul, recombinant protein, residues 110-594, protein details: N-terminal GST",
  "key": {"[1]": {"details": "intermediate, detectable at 125x excess"}},
  "note": "The comparison behind a weaker result is the experiment's own reference, which may not be listed here.",
  "data": [
    {"sequence": "ACCGAAACAATGGGAACTGGTAGAAAG (double strand) [M5 (S4, AATGGGAA)]", "values": [
      {"measurement": "binding result", "setting": "[1]", "result": "binds more weakly"}
    ]},
    {"sequence": "ACCGAAACCCTGAGAACTGGTAGAAAG (double strand) [M6 (S5, CCTGAGAA)]", "values": [
      {"measurement": "binding result", "setting": "[1]", "result": "binds more weakly"}
    ]},
    {"sequence": "ACCGAAACCGTGAAAACTGGTAGAAAG (double strand) [M9 (S8, CGTGAAAA)]", "values": [
      {"measurement": "binding result", "setting": "very weak competition", "result": "binds more weakly"}
    ]},
    {"sequence": "ACCGAAACCGTGTGACCTGGTAGAAAG (double strand) [M10 (S9, CGTGTGAC)]", "values": [
      {"measurement": "binding result", "setting": "intermediate", "result": "binds more weakly"}
    ]}
  ]
}
